Data: PubChem BioAssay AID504467 (National Center for Advancing Translational Sciences (NCATS), 2011)
About 7,700 (2.3%) of roughly 330,000 compounds were called active. Inconclusive means that the source gave no clear call. Such entries were picked first, then a sample of the others. Calls come from the whole dose curve; as a rule, active = well fitted inhibition curve with a large enough effect; inconclusive = small, poorly fitted or top-dose-only effect, or effect the other way; inactive = flat fitted curve, though single readings scatter. A potency beside an inconclusive call is a rough fit, not a confirmed value.

Experiment: qHTS screen for small molecules that inhibit ELG1-dependent DNA repair in human embryonic kidney (HEK293T) cells expressing luciferase-tagged ELG1; note: nearly all actives have a fitted effect of over 55% in size
Details: HEK293T ELG1-luciferase reporter, luminescence, 16 h, DNA damage induced by 5-fluorouridine; activity change, negative = inhibition: at 46.1 µM (top of the series)
Method in brief: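 DMSO vehicle served as the neutral condition. Each well held 2,000 cells given 5-fluorouridine plus compound; after 16 hr at 37 °C/5% CO2, ONE-Glo was added and luciferase measured 30 min later.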
% is set by controls: 0 for no effect and ±100 for the full control effect; potency is the fitted concentration of half-maximal effect.

Compound	activity change, negative = inhibition	Potency
Cc1ccc(N2C(=O)NC(=O)/C(=C/c3ccoc3)C2=O)cc1	inactive: 2.54%	
COc1cccc(N2CCN(C(=O)C3CCCN(S(=O)(=O)c4ccc5c(c4)oc(=O)n5C)C3)CC2)c1 (stereo not drawn)		inconclusive: 5.8 µM [inhibitor, full curve]
CCCCC(=O)N/N=C/c1c(O)n(CCc2ccccc2)c(=O)[nH]c1=O		inconclusive: 23.1 µM [inhibitor, single point]
COc1ccc(CC2(CCc3ccncc3)C(=O)NC(=O)NC2=O)cc1	inactive: -0.855%	
Cc1ccc(-c2cc(-c3ccc(C)cc3)[n+](-c3ccc(C(=O)[O-])cc3)c(-c3ccc(C)cc3)c2)cc1		inconclusive: 3.98 µM [inhibitor, partial curve, poor fit]
O=C(/C=C/c1ccc2c(c1)OCO2)c1c(O)n(CCC2=CCCCC2)c(=O)[nH]c1=O	inactive: -29%	
COc1ccc(CNC(=O)CCC(=O)N2C[C@H]3C[C@H](C2)c2cccc(=O)n2C3)cc1	inactive: 1.16%	
C=CCn1c(O)c(/C=C2/C=c3ccccc3=N2)c(=O)[nH]c1=S		inconclusive: 23.1 µM [activator, partial curve]
Fc1ccc2c(c1)nnn2C1CCN(Cc2c(Cl)cccc2Cl)CC1		inconclusive: 25.9 µM [inhibitor, single point]
COc1cccc(NP(=O)(Oc2ccc(Cl)cc2)Oc2ccc(Cl)cc2)c1		active: 20.6 µM
Cn1c(C(=O)N2CCN(c3nc4ccccc4s3)CC2)cc2sccc21		inconclusive: 25.9 µM [inhibitor, single point]
C[n+]1c(-c2ccccc2)cc(-c2ccc(Cl)cc2)cc1-c1ccccc1		inconclusive: 14.6 µM [inhibitor, partial curve]
O=C(Nc1ccc2c(c1)OCO2)c1cn(Cc2ccc(F)cc2)nn1		inconclusive: 9.2 µM [activator, single point]
COC1=CC(=O)[C@]2(C=C1OC)OC[C@@H]1Oc3c(ccc4c3C=CC(C)(C)O4)C(=O)[C@@H]12		active: 1.16 µM
COCCNC(=O)c1c(N)n(Cc2ccco2)c2nc3ccccc3nc12		active: 13 µM
COc1cc(/C=C2/C(=O)NC(=O)N(c3ccc(C)cc3)C2=O)cc(OC)c1OC		inconclusive: 23.1 µM [activator, partial curve]
O=[N+]([O-])c1ccc(C2[C@H]3C(c4ccccc4)=NC4(CCCCC4)N23)cc1 (stereo partly drawn)	inactive: -23.3%	
O=P(Nc1ccccc1)(Oc1ccccc1)Oc1ccccc1		inconclusive: 32.6 µM [inhibitor, partial curve, poor fit]
CC(=O)Nc1ccccc1C(=O)OCC(=O)c1ccccc1Cl		inconclusive: 18.4 µM [activator, partial curve]
C[C@]12CC[C@H](N)CC1=CCC1C2CC[C@@]2(C)C1CC[C@@H]2O (stereo partly drawn)		active: 16.4 µM
O=C1NC(=O)C(Sc2ccccc2[N+](=O)[O-])C(=O)N1	inactive: 10.8%	
COCCCNC(=O)c1c(N)n(Cc2ccco2)c2nc3ccccc3nc12		inconclusive: 29.1 µM [inhibitor, single point]
C/C(=N\N1CCCCC1)c1c(O)[nH]c(=O)[nH]c1=O		inconclusive: 14.6 µM [activator, partial curve]

Part of the list above in another layout:

| Compound | activity change, negative = inhibition | Potency |
| --- | --- | --- |
| COCCNC(=O)c1c(N)n(Cc2ccco2)c2nc3ccccc3nc12 |  | active: 13 µM |
| C[C@]12CC[C@H](N)CC1=CCC1C2CC[C@@]2(C)C1CC[C@@H]2O (stereo partly drawn) |  | active: 16.4 µM |
| O=C1NC(=O)C(Sc2ccccc2[N+](=O)[O-])C(=O)N1 | inactive: 10.8% |  |

Next structures follow:

Compound	activity change, negative = inhibition	Potency
O=C(CN1C(=O)CN=C(c2ccccc2)c2ccccc21)NCc1ccco1		inconclusive: 29.1 µM [inhibitor, single point]
CC(=O)NC(Cc1ccc(N(CCCl)CCCl)cc1)C(=O)NCC(=O)NCC(=O)O (stereo not drawn)	inactive: -2.98%	
CCCNS(=O)(=O)c1ccc(OCC(=O)N2CCN(Cc3ccc4c(c3)OCO4)CC2)cc1		inconclusive: 2.91 µM [inhibitor, full curve, poor fit]
CC(C)(C)n1cc(C(=O)c2ccccc2OCCCF)cn1		inconclusive: 29.1 µM [activator, partial curve, poor fit]
Nc1nc(SCCC(F)=C(F)F)n[nH]1	inactive: 7.95%	
CCCNC(=O)N1[C@H]2CC[C@@H]1C(C(=O)OC)=C(c1ccc(OC)c(OC)c1)C2	inactive: 21.6%	
O=C1NC(=O)N(Cc2ccccc2)C(=O)/C1=C/C=C/c1ccco1		inconclusive: 29.1 µM [inhibitor, single point]
CCn1c(=O)oc2cc(NC(=O)CCl)ccc21		inconclusive: 29.1 µM [inhibitor, single point]
C[C@H]1COC(=O)[C@@H](Cc2ccc(F)cc2)CC/C=C/C[C@@H](CC(=O)N(CCO)Cc2ccccc2)C(=O)N1		inconclusive: 16.4 µM [inhibitor, partial curve, poor fit]
O=[N+]([O-])c1ccc(N2CCOCC2)c2cccnc12	inactive: -7.43%	
CCOC(=O)c1c(C)n(Cc2ccco2)c2c1cc(O)c1ccccc12	inactive: 6.7%	
Cc1cccn2c(=O)c3c(nc12)N1CCc2ccccc2C1C1(C3)C(=O)NC(=O)N(C)C1=O (stereo not drawn)		active: 13 µM
COC(=O)C1=C(c2ccc(F)cc2OCc2ccccc2)C[C@@H]2CC[C@H]1N2C(=O)NCc1ccccc1		inconclusive: 18.3 µM [inhibitor, single point]
C=CCn1c(O)c(C(C)=Nc2cc(OC)ccc2OC)c(=O)[nH]c1=O	inactive: 0%	
CCOc1ccc(-n2c(O)c(C=Nc3ccc(N(CC)CC)cc3)c(=O)[nH]c2=O)cc1	inactive: -4.15%	
CC(=O)C1(c2ccccc2)CCN(C(=O)C2CCC(=O)N(CCc3cccc(F)c3)C2)CC1 (stereo not drawn)	inactive: -11.9%	
COc1ccccc1N1C(=O)NC(=O)/C(=C/c2ccc3c4c(cccc24)CC3)C1=O		inconclusive: 23.1 µM [inhibitor, single point]
COc1ccc(Oc2cc(NC(=O)c3nn(C)cc3[N+](=O)[O-])cc([N+](=O)[O-])c2)cc1		inconclusive: 5.17 µM [inhibitor, partial curve]
O=C(CN1CC(c2ccccc2)CC1=O)NCc1ccc(F)cc1 (stereo not drawn)	inactive: 19.9%	
Cc1cc(N2CCOCC2)ccc1/C=C1\C(=O)NC(=O)N(c2ccccc2)C1=O		inconclusive: 23.1 µM [activator, single point]
CCc1ccc(CN2CCN(Cc3ccc(SC)cc3)CC2)cc1		active: 5.8 µM
O=C(Cn1cnc2sc3c(c2c1=O)CCCC3)NCCCC(=O)N1CCC2(CC1)OCCO2	inactive: 0.434%	
COc1cc2c3c(c1OC)-c1cc(O)ccc1CC3NCC2 (stereo not drawn)	inactive: -7.33%	

Compound	activity change, negative = inhibition	Potency
O=C(Oc1ccc2cc(Br)ccc2c1)N1CCCCCC1		inconclusive: 13 µM [activator, partial curve]
C=CCn1c(O)c(/C=C2/C=CC=N2)c(=O)[nH]c1=O		inconclusive: 29.1 µM [activator, single point]
CCCCn1c(O)c(C(C)=NCCc2c[nH]c3ccccc23)c(=O)[nH]c1=O		inconclusive: 29.1 µM [inhibitor, single point]
COc1ccc(OC(=O)Nc2ccccc2)cc1		inconclusive: 23.1 µM [activator, single point]
CC1(C)CSC(Nc2ccc(F)c(Cl)c2)=N1		inconclusive: 29.1 µM [inhibitor, single point]
CCC(=NCc1ccco1)c1c(O)n(Cc2ccccc2)c(=O)[nH]c1=O		inconclusive: 29.1 µM [inhibitor, single point]
Cc1cc(C)cc(N2C(=O)NC(=O)/C(=C\C=C\c3ccco3)C2=O)c1		inconclusive: 23.1 µM [inhibitor, single point]
Cc1cccc(C)c1NC(=O)CN(C)CC(=O)Nc1ccc(C#N)c(Cl)c1		inconclusive: 29.1 µM [inhibitor, single point]
CN1C(=O)/C(=C\c2ccc(Br)s2)C(=O)NC1=S	inactive: 25.1%	
Cc1ccc(C(=O)Nc2nc3ccccc3n2CCN2CCCC2)cc1		inconclusive: 2.59 µM [activator, full curve]
NC(Cc1ccccc1)c1nc2ccccc2[nH]1 (stereo not drawn)		inconclusive: 18.3 µM [activator, single point]
Cc1ccc(Cl)cc1N1CCN(C(=O)c2cn(C)c(=O)c3c2c2ccccc2n3C)CC1		inconclusive: 4.11 µM [inhibitor, single point]
OC(Cc1ccccc1)(c1ccccc1)C1CN2CCC1CC2 (stereo not drawn)	inactive: 0%	
Cc1nn(CC(C)C)c(Cl)c1C(=O)NC1CCCCC1		inconclusive: 8.2 µM [activator, partial curve, poor fit]
O=C(c1ccc(Cl)cc1)C1CCCN(Cc2cccn2-c2cccnc2)C1 (stereo not drawn)		inconclusive: 16.4 µM [activator, partial curve]
CN(C)c1nc(OCCNC(=O)COc2ccc(Cl)cc2Cl)nc(N2CCCCC2)n1		inconclusive: 25.9 µM [inhibitor, partial curve, poor fit]
Cc1ccc2cc(CNCCc3ccccc3C)c(=O)[nH]c2c1	inactive: -10.9%	
CCOC(=O)c1c(NC(NC(=O)CF)C(Cl)(Cl)Cl)sc2c1CCCC2 (stereo not drawn)	inactive: -1.52%	
COc1ccc(C(=O)C2CCCN(C3CSCCSC3)C2)c(OC)c1 (stereo not drawn)		inconclusive: 16.4 µM [inhibitor, single point]
C[C@@H]1C[C@H]2OC(=O)C3(CO3)[C@H]2[C@H](O)[C@]2(C)C(=O)C3OC3[C@@H]12 (stereo partly drawn)		inconclusive: 4.61 µM [inhibitor, partial curve, poor fit]
O=C(N/N=C/c1c(O)n(C2CCCCC2)c(=S)[nH]c1=O)c1ccccc1		inconclusive: 20.6 µM [activator, single point]
O=C(NCc1ccccc1)C(=O)NCC1OCCN1S(=O)(=O)c1ccc([N+](=O)[O-])cc1 (stereo not drawn)		inconclusive: 8.2 µM [inhibitor, partial curve, poor fit]
